# Assay results reported in paper PMC6265447, “The bacterial Mre11–Rad50 homolog SbcCD cleaves opposing strands of DNA by two chemically distinct nuclease reactions” (Nucleic Acids Research, 2018).
# These are yes or no findings as the source states them, for the method shown.
# Molecular target: SbcD^V68D nuclease and capping domain (E. coli) (UniProt P0AG76)
# Test: SEC with right-angle light scattering (RALS); SbcD nuclease and capping domain alone, in the absence of SbcC; both purified
binder,measurement,value
"SbcD^V68D nuclease and capping domain (domain or fragment, UniProt P0AG76 1-340) MRILHTSDWHLGQNFYSKSREAEHQAFLDWLLETAQTHQVDAIIVAGDVFDTGSPPSYARTLYNRFVDNLQQTGCHLVVLAGNHDSVATLNESRDIMAFLNTTVVASAGHAPQILPRRDGTPGAVLCPIPFLRPRDIITSQAGLNGIEKQQHLLAAITDYYQQHYADACKLRGDQPLPIIATGHLTTVGASKSDAVRDIYIGTLDAFPAQNFPPADYIALGHIHRAQIIGGMEHVRYCGSPIPLSFDECGKSKYVHLVTFSNGKLESVENLNVPVTQPMAVLKGDLASITAQLEQWRDVSQEPPVWLDIEITTDEYLHDIQRKIQALTESLPVEVLLVRR",binding,no binding
